Some of these results come from one statement about several compounds together.
Target: rat-tail collagen type I (Rattus norvegicus, UniProt P02454+P02466)
Assay: Collagen fibril alignment of hydrogels formed from peptide-collagen solutions, deuterium NMR (deuterium coupling constant)
Format: binding
Set-up: rat-tail collagen type I (at 4 mg/ml in 0.02 N acetic acid); purchased BD Bioscience; host or cells: rat tail (tissue-derived)
Conditions: gelation under magnetic field guidance
Experimental: Rat collagen hydrogels were prepared using rat-tail collagen type I (at 4 mg/ml in 0.02 N acetic acid) from BD Bioscience. A volume of 200 μL of the concentrated collagen solution was mixed with an equal volume of a buffer solution that was 400 mM in Tris-HCl and 400 mM in NaCl with a pH of 7.6 and with 50 μL of deuterated water (D2O). The sample mixture was transferred to an NMR tube followed by gentle mixing under agitation using a Thermolyne™ Max Mix-II apparatus. The NMR tube containing the collagen solution was placed within the RF probe housed in a 500 MHz super-conducting magnet (Bruker Avance-500 NMR spectrometer). The probe and sample bulk temperature was kept at 277 K for 3 hours and then elevated to 310 K at a rate of 1 degree/10 min to enable fibril alignment during a slow process of collagen gelation under the influence of the magnetic field (Ma 2008). The degree of fibril alignment of the collagen hydrogels was determined by use of deuterium NMR spectroscopy of the added D2O as described (Ma 2008). […]

By UniProt entry, the sequences of proteins in these tests, tags left out. Residues count along the entry.
UniProt P02454, 152-1207 limits assumed: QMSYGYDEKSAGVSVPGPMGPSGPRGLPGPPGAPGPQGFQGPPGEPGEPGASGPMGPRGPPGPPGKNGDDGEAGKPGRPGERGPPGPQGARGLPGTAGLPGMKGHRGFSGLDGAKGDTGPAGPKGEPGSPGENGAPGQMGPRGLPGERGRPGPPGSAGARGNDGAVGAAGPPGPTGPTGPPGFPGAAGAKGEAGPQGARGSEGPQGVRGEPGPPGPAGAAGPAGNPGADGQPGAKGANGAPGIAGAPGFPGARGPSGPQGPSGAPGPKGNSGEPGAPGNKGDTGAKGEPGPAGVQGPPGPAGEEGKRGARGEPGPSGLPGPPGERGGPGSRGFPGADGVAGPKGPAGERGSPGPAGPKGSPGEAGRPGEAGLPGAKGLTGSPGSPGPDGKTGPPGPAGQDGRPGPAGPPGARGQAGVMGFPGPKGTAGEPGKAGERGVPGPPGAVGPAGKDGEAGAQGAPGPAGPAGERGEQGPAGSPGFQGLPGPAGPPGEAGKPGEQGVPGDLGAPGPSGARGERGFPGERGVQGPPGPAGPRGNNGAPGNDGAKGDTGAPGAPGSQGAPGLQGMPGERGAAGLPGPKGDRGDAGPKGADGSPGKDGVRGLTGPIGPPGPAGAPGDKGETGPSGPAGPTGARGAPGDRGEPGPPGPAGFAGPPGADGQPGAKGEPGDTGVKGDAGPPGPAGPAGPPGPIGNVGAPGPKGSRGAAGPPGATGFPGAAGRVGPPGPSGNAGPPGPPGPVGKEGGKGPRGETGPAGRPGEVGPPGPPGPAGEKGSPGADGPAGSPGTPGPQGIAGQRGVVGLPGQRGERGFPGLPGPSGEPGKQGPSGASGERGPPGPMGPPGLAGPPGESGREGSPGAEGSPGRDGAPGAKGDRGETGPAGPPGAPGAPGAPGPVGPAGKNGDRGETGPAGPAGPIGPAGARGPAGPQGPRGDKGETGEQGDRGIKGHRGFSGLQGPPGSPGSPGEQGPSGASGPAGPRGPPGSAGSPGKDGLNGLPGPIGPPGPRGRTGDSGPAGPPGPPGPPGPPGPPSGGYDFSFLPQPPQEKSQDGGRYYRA
UniProt P02466, 86-1125 limits assumed: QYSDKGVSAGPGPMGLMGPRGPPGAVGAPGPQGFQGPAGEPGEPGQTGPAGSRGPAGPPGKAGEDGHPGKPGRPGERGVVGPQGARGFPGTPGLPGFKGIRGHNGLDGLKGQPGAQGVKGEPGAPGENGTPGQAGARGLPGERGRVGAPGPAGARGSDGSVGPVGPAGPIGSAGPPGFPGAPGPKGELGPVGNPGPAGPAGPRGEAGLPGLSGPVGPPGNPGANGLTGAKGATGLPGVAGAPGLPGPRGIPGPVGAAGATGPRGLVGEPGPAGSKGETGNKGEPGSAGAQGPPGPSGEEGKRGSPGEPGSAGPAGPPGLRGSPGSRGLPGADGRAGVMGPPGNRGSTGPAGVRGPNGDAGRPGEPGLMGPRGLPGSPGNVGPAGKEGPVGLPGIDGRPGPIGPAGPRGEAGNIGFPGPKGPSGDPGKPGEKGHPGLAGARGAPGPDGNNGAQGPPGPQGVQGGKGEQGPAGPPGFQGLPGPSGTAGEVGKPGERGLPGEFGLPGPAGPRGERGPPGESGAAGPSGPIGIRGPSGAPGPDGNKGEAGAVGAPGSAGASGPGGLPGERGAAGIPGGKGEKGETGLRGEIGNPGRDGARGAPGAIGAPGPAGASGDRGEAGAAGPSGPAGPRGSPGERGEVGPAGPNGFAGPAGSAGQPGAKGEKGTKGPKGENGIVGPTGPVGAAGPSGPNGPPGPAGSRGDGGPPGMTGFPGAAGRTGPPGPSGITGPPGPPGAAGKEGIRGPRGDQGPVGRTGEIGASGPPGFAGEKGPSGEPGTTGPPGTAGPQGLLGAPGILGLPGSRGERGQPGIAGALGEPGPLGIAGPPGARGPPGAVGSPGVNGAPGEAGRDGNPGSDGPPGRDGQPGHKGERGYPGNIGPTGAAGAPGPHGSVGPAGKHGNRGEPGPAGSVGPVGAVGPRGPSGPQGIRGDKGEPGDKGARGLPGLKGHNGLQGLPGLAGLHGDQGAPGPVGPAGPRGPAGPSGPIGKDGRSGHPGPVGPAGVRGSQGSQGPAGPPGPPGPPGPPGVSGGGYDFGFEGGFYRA

Substance	reduction of deuterium coupling constant measuring the degree of collagen fibril alignment
MH2-wZIP5: bivalent thrombin inhibitor containing the trpzip5 sequence (WO/2012/142696) (GEWTYDDATKTFTWTE; left off: small tags and cut ends)	less than 0.5 Hz
MH2-wZIP6: bivalent thrombin inhibitor containing the trpzip6 sequence (WO/2012/142696) (GEWTWDDATKTWTVTE; left off: small tags and cut ends)	less than 0.5 Hz
